Data published in the RNAGym collection of RNA variant scans (doi:10.1126/science.aae0568).
This sample is rich in variants without activity.

B1: tRNA (parent)
chain: GUUCCGUUGGCGUAAUGGUAACGCGUCUCCCUCCUAAGGAGAAGACUGCGGGUUCGAGUCCCGUACGGAACG

Variants of: B1
Assay: yeast fitness relative to wild type (ratio to wild type); higher = fitter; tRNA-Arg(CCU), competitive growth, 37 C, YPD
Procedure, shortened: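 Start and end populations of a pooled competition were compared by 100-nucleotide paired-end sequencing of gene amplicons. The Saccharomyces cerevisiae strains carried tRNA-Arg(CCU) gene variants at the native genomic locus, synthesised with a 3% per-site mutation rate at 69 sites, and competed in YPD at 37°C for 24 hours in six parallel replicates. Darwinian fitness relative to wild type was based on the change in genotype frequencies. Genotypes required ≥ 100 starting reads, and estimates < 0.5 were set to 0.5.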

U2G A21C C61G G68A and A15C C27U C62U cannot be ordered by yeast fitness: no more than 0.5 for the first, no more than 0.5 for the second.

Going from A37U A40C G51A to G9C A15U C31U G51C G56A C62G, the yeast fitness falls from 0.687 to no more than 0.5.

A21C C30U U32G U53C G68C A70G and G48A C60G G63C U64C C66G cannot be ordered by yeast fitness: no more than 0.5 for the first, no more than 0.5 for the second.

G10C U26C C66U and C11A A40C G41C cannot be ordered by yeast fitness: no more than 0.5 for the first, no more than 0.5 for the second.

G9C A20G U35C A36G and C22G A43U C46G C66U cannot be ordered by yeast fitness: no more than 0.5 for the first, no more than 0.5 for the second.

A36C A65U G68U and C31G C34U U54C cannot be ordered by yeast fitness: no more than 0.5 for the first, no more than 0.5 for the second.

U7A U19C C27G and C4G U8A G12A U54A cannot be ordered by yeast fitness: no more than 0.5 for the first, no more than 0.5 for the second.

Going from G6A A14G C49U to U7G A14G C22U G38A C62U, the yeast fitness falls from 0.57 to no more than 0.5.

Compared with G17C G23C, C29U C33G is higher in yeast fitness: 0.517 for the first, 0.689 for the second.

A37U C66U A69U and G38C C46A C66G cannot be ordered by yeast fitness: no more than 0.5 for the first, no more than 0.5 for the second.

A20C G41C U59G G63C and C4U C24U C27U C30A G58A A70G cannot be ordered by yeast fitness: no more than 0.5 for the first, no more than 0.5 for the second.

Compared with C27U U32A, C5G C33G A36U G38C A65G is lower in yeast fitness: 0.993 for the first, no more than 0.5 for the second.

C5U C22U G52A U53C U59G C61G C62U and U2C A14G A57U C62U cannot be ordered by yeast fitness: no more than 0.5 for the first, no more than 0.5 for the second.

A43C G51C U59A and C11G C49A A57U U64A G67U cannot be ordered by yeast fitness: no more than 0.5 for the first, no more than 0.5 for the second.

G6A C29U A37C and C34G G67A A70C cannot be ordered by yeast fitness: no more than 0.5 for the first, no more than 0.5 for the second.

G23A G48A G58A and C31G C33G G63A cannot be ordered by yeast fitness: no more than 0.5 for the first, no more than 0.5 for the second.

Compared with U8C A14G G68A, A37C C55A C62U is lower in yeast fitness: 0.534 for the first, no more than 0.5 for the second.

Going from C31U U53G C61G C66G to U19G G58C G67C, the yeast fitness rises from no more than 0.5 to 0.61.

A14G A40U A42C U53A and A14C G18A G44A cannot be ordered by yeast fitness: no more than 0.5 for the first, no more than 0.5 for the second.

Compared with C5G A21U C55A, G6C G10C A69C is higher in yeast fitness: no more than 0.5 for the first, 0.589 for the second.

C27G A43C C60G and C27G C34A cannot be ordered by yeast fitness: no more than 0.5 for the first, no more than 0.5 for the second.

C5G A14G G18C C24U and A15U A20G C27U A69C cannot be ordered by yeast fitness: no more than 0.5 for the first, no more than 0.5 for the second.

A20C G38C A43U A45G and C34A A43C C62A cannot be ordered by yeast fitness: no more than 0.5 for the first, no more than 0.5 for the second.

C5A U19C C29G C31U and C5A G12A G18A C27G C46G A65G cannot be ordered by yeast fitness: no more than 0.5 for the first, no more than 0.5 for the second.

U13A C29U G41C G52A and C5G U53A C62G cannot be ordered by yeast fitness: no more than 0.5 for the first, no more than 0.5 for the second.

G18A U26G G48C and U8C C34G A57G A65G C66U cannot be ordered by yeast fitness: no more than 0.5 for the first, no more than 0.5 for the second.

U32A A37G C46A U53A and C29G G56U cannot be ordered by yeast fitness: no more than 0.5 for the first, no more than 0.5 for the second.

G9A C11G C24G U32A C46G A69U and G10C A21G G23A C29A cannot be ordered by yeast fitness: no more than 0.5 for the first, no more than 0.5 for the second.

Going from U3A C5U C31G A57G to C4U A20C C30A C55A G67A, the yeast fitness rises from no more than 0.5 to 0.53.

G10C U47G C62G G68A and U2A U3G G18A A20C C49U cannot be ordered by yeast fitness: no more than 0.5 for the first, no more than 0.5 for the second.

U8A A14G U59G and C30G C33G C60G cannot be ordered by yeast fitness: no more than 0.5 for the first, no more than 0.5 for the second.

A42C G50C G68U and G6C A14C A42G cannot be ordered by yeast fitness: no more than 0.5 for the first, no more than 0.5 for the second.

G12A A37G G39C C62A and C11G A36U A42G A43C C49U A57U A65C cannot be ordered by yeast fitness: no more than 0.5 for the first, no more than 0.5 for the second.

Compared with A42U U53C, A36U G48C C66U is lower in yeast fitness: 0.732 for the first, no more than 0.5 for the second.

First: C5U A20U U28G U32G C34G
Second: U16G C29U C31A C46U
The yeast fitness of the first is lower: no more than 0.5 for the first, 0.716 for the second.

C5U C11A A37C and G12A A37C A40G cannot be ordered by yeast fitness: no more than 0.5 for the first, no more than 0.5 for the second.

First: G23A A36C C55G
Second: U28C C34U
The yeast fitness of the first is lower: no more than 0.5 for the first, 0.71 for the second.

C31U G39C G52C and C29G C31G U54C U64A cannot be ordered by yeast fitness: no more than 0.5 for the first, no more than 0.5 for the second.

C5U G12A G17C U26G G67A and C4A G17C G50A C60U cannot be ordered by yeast fitness: no more than 0.5 for the first, no more than 0.5 for the second.

C29U G44C C49U A57U G63A and G6C C27U A45G U64A A69C cannot be ordered by yeast fitness: no more than 0.5 for the first, no more than 0.5 for the second.

A37G A42U A43C C46U A70G and A15U G44A A57U cannot be ordered by yeast fitness: no more than 0.5 for the first, no more than 0.5 for the second.

U3C A15G C29A A40U C55G C61G and C4G A21G G56U G58C cannot be ordered by yeast fitness: no more than 0.5 for the first, no more than 0.5 for the second.

Compared with U13C C66G A70U, U26G A45G C46U U53G is higher in yeast fitness: no more than 0.5 for the first, 0.599 for the second.

A20G A37U C61A and G23A C30G U47C C60G cannot be ordered by yeast fitness: no more than 0.5 for the first, no more than 0.5 for the second.

Going from U3C C55A to G6C C24G C31G, the yeast fitness falls from 0.687 to no more than 0.5.

A20U C31U G56A A69C and G6C U16G A20C G25A A43U C55U cannot be ordered by yeast fitness: no more than 0.5 for the first, no more than 0.5 for the second.

U3A U32C A37C C46U and U8C C22U U32C C46G U53G G68C cannot be ordered by yeast fitness: no more than 0.5 for the first, no more than 0.5 for the second.

First: U2A A20U C34A C61U
Second: C4G A37U
The yeast fitness of the first is lower: no more than 0.5 for the first, 0.681 for the second.

Going from C4A U35C G48C C55U G56A to C4A G17U C46A, the yeast fitness rises from 0.51 to 0.645.

G12A C24G A40C A43C C46U and U3G A42G G44C cannot be ordered by yeast fitness: no more than 0.5 for the first, no more than 0.5 for the second.

G6C G9C C29A C34U and C5A U16G A20U cannot be ordered by yeast fitness: no more than 0.5 for the first, no more than 0.5 for the second.

C33U G41C G58C and U8C A21U C24A cannot be ordered by yeast fitness: no more than 0.5 for the first, no more than 0.5 for the second.

C29A A37G C49U and U8A A20C A21G C27G C60G cannot be ordered by yeast fitness: no more than 0.5 for the first, no more than 0.5 for the second.

Compared with U16A U19C, G6A A36G A43C is lower in yeast fitness: 1.03 for the first, no more than 0.5 for the second.

A14G C22G C30G A57U G68U A70G and G10C C29G G39A C55A cannot be ordered by yeast fitness: no more than 0.5 for the first, no more than 0.5 for the second.

G18C C27G C49U and C4A G23A U53A U64C cannot be ordered by yeast fitness: no more than 0.5 for the first, no more than 0.5 for the second.

First: G25C U28C G48C C49U
Second: A14U C22A
The yeast fitness of the first is lower: no more than 0.5 for the first, 0.668 for the second.

C11U C31U G56A A57C and C22U U47A C61U cannot be ordered by yeast fitness: no more than 0.5 for the first, no more than 0.5 for the second.

U7G C30U A36G C55G and C24U A36G C46A U47C C55A G67A cannot be ordered by yeast fitness: no more than 0.5 for the first, no more than 0.5 for the second.

C11G A15U C24G A40G and G25C C31U U32A A65G cannot be ordered by yeast fitness: no more than 0.5 for the first, no more than 0.5 for the second.

U7A U19C U28C C29G A57U and G6C U47A C60G cannot be ordered by yeast fitness: no more than 0.5 for the first, no more than 0.5 for the second.

U2G C33U A36U A43C A65U G68U and C5U G17C G25C U47C cannot be ordered by yeast fitness: no more than 0.5 for the first, no more than 0.5 for the second.

C4A G6A G51C C55G and A14G A21C C30G A57U cannot be ordered by yeast fitness: no more than 0.5 for the first, no more than 0.5 for the second.

C5U C11U A36U and C31U A42C U54A cannot be ordered by yeast fitness: no more than 0.5 for the first, no more than 0.5 for the second.

U2A C24U G56C A65G A70U and U7A G51A G52A A70G cannot be ordered by yeast fitness: no more than 0.5 for the first, no more than 0.5 for the second.

Going from C27A C31G C60G to C33U A65U C66U, the yeast fitness falls from 0.537 to no more than 0.5.

Compared with C5U G18C C22A G51C, A14C A40U G52A C55G C61U C66U is lower in yeast fitness: 0.562 for the first, no more than 0.5 for the second.

U53A C62A C66U and C5A C33U C55G A65G cannot be ordered by yeast fitness: no more than 0.5 for the first, no more than 0.5 for the second.

First: C4G G6A U47A
Second: U3C C31G U32C C33U G38C C46G G48C
The yeast fitness of the first is higher: 0.61 for the first, no more than 0.5 for the second.

C4A G18A C24U C30G C34G and C4U U26A G38A G63C cannot be ordered by yeast fitness: no more than 0.5 for the first, no more than 0.5 for the second.

U13A C30U C55G G58C C66U and U35G C46A A69C cannot be ordered by yeast fitness: no more than 0.5 for the first, no more than 0.5 for the second.

First: C5G G9C C60G A69U
Second: G10A A37U C61G C66G
The yeast fitness of the first is lower: no more than 0.5 for the first, 0.623 for the second.

G10A C11G U26A U35A G48C and U2C C24U C29U C30A G68C A69U cannot be ordered by yeast fitness: no more than 0.5 for the first, no more than 0.5 for the second.

G10A C29G A36G A65C and C30U A37C A69C cannot be ordered by yeast fitness: no more than 0.5 for the first, no more than 0.5 for the second.

C11G A20G G58A and C11G C29U A65U cannot be ordered by yeast fitness: no more than 0.5 for the first, no more than 0.5 for the second.

C11A A42C G63C and U7A A20G G58U cannot be ordered by yeast fitness: no more than 0.5 for the first, no more than 0.5 for the second.

Going from C5G A15U G63A to U3A A20G G56C, the yeast fitness falls from 0.551 to no more than 0.5.

G9C U47G U64C and U2G A42U C55U C62G A70C cannot be ordered by yeast fitness: no more than 0.5 for the first, no more than 0.5 for the second.

A42U C49U C55U A69C and C5A C24G U26A C29G U32A A65U cannot be ordered by yeast fitness: no more than 0.5 for the first, no more than 0.5 for the second.

U8A A20C U35A G38C and C11A G18C C27G A57G cannot be ordered by yeast fitness: no more than 0.5 for the first, no more than 0.5 for the second.

C29U C49A G50A G63C and U7A C29U A57C G68U A69U cannot be ordered by yeast fitness: no more than 0.5 for the first, no more than 0.5 for the second.

Going from C11U U13A U16A U54A to C4A G9C G50A G63C, the yeast fitness falls from 0.711 to no more than 0.5.

Going from U3C C62A to C4U A37U C66A, the yeast fitness falls from 0.865 to 0.542.

Work on C5G C49A G63A yielded a yeast fitness of no more than 0.5.
